In the supplement of paper PMC10849652:
Some of the results follow.

Chains of the proteins cited; added tags and fusions are not shown. Lines headed by an entry give the natural chain unless they say otherwise; changes in a name come on top.
UniProt Q8IWZ3: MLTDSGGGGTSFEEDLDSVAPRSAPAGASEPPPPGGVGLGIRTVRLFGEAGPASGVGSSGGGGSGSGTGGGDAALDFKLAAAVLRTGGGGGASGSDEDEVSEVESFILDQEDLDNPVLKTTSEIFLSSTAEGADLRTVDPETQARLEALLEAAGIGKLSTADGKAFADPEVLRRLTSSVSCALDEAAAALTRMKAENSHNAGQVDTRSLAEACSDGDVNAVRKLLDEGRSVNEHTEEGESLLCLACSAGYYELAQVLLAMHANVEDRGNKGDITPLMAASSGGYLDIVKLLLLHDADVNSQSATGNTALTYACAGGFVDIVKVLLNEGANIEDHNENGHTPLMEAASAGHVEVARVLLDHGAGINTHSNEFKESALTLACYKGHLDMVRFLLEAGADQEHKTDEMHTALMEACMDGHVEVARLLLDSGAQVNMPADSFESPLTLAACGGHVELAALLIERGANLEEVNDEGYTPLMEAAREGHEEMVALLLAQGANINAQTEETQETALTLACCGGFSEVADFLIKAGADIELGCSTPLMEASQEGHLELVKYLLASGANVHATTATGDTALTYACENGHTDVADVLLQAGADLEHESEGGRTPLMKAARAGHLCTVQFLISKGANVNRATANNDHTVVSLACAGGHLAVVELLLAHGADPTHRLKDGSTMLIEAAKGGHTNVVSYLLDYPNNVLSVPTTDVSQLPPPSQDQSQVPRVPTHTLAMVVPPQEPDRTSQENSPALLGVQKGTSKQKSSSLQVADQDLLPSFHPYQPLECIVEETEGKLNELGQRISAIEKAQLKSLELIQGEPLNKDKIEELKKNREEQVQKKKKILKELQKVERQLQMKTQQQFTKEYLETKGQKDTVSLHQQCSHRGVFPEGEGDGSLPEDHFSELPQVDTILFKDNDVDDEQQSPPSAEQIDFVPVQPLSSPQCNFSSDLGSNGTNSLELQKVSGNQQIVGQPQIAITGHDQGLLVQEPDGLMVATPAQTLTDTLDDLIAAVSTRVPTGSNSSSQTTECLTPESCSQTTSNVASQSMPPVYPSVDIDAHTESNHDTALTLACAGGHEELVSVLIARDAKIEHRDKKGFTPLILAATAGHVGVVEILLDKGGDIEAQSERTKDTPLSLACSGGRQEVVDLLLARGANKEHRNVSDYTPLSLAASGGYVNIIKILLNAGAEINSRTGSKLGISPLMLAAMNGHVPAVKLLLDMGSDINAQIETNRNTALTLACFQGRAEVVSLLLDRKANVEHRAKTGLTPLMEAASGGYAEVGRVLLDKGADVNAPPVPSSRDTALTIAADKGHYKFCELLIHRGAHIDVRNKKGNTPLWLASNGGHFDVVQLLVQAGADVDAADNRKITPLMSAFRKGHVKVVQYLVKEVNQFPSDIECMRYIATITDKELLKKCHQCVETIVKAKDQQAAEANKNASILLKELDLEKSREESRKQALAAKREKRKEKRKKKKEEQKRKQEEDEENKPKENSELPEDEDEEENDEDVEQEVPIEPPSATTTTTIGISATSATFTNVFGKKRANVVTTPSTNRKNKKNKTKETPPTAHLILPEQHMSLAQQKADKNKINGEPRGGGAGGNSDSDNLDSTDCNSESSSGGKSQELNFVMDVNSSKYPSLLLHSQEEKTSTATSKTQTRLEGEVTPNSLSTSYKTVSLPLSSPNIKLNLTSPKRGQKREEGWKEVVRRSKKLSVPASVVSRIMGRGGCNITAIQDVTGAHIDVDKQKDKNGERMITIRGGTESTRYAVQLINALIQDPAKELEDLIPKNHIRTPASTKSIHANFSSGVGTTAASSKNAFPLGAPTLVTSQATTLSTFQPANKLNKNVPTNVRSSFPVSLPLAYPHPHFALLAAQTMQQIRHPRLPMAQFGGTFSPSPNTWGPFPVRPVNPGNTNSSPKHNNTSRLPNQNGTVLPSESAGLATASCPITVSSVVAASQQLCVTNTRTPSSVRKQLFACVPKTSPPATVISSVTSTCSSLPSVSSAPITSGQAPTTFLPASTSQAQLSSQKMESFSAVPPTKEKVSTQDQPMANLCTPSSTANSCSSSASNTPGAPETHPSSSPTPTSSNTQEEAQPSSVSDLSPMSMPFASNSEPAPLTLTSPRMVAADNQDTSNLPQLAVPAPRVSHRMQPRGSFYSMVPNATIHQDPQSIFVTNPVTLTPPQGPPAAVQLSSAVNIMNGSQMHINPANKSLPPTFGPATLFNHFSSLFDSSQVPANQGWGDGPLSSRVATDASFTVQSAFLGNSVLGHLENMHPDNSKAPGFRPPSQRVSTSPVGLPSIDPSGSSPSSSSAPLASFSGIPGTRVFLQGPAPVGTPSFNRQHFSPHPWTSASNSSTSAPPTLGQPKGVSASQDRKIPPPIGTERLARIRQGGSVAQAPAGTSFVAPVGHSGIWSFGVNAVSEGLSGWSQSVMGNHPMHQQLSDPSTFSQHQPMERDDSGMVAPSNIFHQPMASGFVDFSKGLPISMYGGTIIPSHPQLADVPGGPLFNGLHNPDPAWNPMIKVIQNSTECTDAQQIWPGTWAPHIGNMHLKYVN
UniProt Q96GX9: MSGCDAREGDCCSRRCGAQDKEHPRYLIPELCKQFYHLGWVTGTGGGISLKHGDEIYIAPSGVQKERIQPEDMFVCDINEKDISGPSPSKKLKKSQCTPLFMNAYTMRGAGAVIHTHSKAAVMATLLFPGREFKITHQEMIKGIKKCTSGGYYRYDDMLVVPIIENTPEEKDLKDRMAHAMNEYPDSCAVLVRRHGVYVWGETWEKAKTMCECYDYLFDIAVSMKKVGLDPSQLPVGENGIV
UniProt Q9H8Y5: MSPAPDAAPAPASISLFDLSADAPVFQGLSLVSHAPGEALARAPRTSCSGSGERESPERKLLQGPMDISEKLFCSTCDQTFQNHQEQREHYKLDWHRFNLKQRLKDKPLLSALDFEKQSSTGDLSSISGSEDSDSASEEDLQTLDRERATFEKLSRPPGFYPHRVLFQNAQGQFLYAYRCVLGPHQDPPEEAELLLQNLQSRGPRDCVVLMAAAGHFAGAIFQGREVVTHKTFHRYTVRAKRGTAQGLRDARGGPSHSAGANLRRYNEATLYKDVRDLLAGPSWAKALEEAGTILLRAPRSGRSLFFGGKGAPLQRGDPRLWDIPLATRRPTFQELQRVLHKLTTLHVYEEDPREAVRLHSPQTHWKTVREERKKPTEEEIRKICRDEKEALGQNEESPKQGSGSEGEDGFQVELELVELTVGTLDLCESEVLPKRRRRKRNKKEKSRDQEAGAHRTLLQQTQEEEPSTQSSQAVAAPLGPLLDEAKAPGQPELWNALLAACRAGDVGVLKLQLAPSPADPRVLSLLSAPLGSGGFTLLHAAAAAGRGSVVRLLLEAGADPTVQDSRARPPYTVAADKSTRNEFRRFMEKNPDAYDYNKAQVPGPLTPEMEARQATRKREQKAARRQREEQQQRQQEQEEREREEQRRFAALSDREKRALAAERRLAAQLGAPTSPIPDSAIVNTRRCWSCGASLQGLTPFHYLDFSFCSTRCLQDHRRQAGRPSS
UniProt P98171: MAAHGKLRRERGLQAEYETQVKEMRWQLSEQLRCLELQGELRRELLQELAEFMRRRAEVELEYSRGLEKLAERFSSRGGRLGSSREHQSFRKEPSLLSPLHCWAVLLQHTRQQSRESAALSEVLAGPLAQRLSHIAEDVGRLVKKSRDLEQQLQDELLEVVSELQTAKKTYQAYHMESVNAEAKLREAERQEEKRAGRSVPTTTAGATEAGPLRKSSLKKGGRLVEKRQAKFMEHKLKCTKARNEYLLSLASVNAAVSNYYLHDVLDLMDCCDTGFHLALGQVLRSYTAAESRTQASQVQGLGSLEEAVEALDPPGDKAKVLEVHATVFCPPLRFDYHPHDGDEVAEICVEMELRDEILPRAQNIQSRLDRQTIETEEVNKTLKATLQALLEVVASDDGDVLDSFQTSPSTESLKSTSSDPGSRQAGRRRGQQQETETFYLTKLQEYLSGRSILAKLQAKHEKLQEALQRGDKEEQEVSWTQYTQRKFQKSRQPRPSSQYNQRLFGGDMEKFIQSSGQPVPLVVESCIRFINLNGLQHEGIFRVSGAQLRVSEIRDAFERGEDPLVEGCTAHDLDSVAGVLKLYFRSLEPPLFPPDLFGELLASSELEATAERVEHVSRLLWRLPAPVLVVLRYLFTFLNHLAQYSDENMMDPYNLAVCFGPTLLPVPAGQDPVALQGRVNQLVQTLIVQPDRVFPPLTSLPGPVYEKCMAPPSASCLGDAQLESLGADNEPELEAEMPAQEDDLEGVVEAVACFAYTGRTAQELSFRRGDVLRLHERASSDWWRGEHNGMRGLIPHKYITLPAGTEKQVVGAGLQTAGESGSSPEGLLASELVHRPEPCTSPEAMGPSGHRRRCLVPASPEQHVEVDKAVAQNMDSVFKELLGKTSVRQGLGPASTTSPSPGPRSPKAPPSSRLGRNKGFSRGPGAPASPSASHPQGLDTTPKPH
UniProt P84077: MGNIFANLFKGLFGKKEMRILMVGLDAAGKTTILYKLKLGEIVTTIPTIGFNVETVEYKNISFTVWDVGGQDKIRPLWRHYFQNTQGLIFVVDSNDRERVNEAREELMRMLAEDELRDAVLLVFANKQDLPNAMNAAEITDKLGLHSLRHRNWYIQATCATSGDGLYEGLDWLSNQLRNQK
UniProt P12429: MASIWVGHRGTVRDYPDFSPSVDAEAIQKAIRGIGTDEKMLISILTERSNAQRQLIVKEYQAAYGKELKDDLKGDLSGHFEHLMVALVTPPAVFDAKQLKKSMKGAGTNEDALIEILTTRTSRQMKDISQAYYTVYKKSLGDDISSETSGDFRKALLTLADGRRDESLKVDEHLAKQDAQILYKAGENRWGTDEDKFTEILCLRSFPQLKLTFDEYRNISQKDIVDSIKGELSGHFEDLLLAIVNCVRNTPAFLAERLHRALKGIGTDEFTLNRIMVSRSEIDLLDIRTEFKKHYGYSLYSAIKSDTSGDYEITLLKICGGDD
UniProt Q9BUR5: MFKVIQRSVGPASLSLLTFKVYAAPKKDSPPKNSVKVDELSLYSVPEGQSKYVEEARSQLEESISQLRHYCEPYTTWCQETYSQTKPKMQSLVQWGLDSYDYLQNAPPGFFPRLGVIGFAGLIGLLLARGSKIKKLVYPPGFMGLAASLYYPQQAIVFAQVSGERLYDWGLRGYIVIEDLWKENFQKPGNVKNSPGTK
UniProt O14791: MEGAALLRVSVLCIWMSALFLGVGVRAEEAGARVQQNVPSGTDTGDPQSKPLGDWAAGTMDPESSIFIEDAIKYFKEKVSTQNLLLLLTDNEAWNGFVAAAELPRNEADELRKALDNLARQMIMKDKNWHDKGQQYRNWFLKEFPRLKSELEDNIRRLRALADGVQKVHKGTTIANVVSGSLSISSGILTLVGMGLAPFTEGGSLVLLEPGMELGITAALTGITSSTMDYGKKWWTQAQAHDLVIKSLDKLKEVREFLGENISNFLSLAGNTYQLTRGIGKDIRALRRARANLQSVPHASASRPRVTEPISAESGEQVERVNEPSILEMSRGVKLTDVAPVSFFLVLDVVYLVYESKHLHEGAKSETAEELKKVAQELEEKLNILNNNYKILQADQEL
UniProt Q8IWW6: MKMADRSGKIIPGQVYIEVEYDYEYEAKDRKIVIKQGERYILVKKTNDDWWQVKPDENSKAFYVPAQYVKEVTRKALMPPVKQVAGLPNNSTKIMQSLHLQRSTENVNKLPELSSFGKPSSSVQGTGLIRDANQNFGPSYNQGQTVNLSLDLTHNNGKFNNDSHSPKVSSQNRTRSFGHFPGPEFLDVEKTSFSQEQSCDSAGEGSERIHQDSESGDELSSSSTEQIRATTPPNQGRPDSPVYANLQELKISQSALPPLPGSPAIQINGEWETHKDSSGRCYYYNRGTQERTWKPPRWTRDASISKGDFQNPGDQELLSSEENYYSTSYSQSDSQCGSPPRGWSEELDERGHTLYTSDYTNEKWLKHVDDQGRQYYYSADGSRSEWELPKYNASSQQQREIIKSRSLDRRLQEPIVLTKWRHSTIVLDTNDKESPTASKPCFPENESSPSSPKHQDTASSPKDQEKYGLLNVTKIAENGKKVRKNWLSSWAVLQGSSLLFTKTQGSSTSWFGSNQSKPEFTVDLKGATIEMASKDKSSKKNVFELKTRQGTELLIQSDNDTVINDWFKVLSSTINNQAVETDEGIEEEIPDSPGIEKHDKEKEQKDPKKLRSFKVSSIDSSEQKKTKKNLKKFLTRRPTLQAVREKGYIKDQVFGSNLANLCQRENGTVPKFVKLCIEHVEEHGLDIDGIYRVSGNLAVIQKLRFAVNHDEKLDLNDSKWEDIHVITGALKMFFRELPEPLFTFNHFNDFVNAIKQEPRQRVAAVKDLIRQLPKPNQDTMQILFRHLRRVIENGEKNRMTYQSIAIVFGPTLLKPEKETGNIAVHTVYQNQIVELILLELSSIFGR
UniProt P02654: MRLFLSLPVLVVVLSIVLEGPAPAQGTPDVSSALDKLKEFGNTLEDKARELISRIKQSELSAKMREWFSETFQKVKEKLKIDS

Columns and labels:
Experiment in all cases: log2 fold change, soluble protein after heating vs DMSO (PISA); higher = thermal stabilisation; K562 cells, 10 uM, 30 min; active = over 0.2 and 3.5 SD of the protein, either way, in both replicates (recomputed)
[1] = compound: C1=CC=C(C=C1)[C@H](COC2=CC3=C(C=C2)NC(=O)N3)NC(=O)C4=CC=CN(C4=O)CC5=CC(=C(C=C5)F)F
Summary of the method: (§1)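 K562 cells (2×10^6 cells/mL) were treated with 10 μM compound for 30 min, and aliquots were heated for 3 min over 48°C-58°C. Pooled aliquots were extracted in PBS with 0.5% NP-40 at 4°C, and the supernatant after 21,000xg for 90 min was measured by TMTpro 16plex LC-MS/MS with channel sums equalised. Reported thermal stability, relative to control samples and from duplicates, is a log2 fold change.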

[2] = compound: CC1=C(SC2=C1C(=N[C@H](C3=NN=C(N32)C)CC(=O)N)C4=CC=C(C=C4)Cl)C
Summary of the method: as §1

[3] = compound: CC1=C2C(=CC=C1)N=C(N(C2=O)C3=CC=CC=C3C)CN4C=NC5=C(N=CN=C54)N
Summary of the method: as §1

[4] = compound: Cc1sc2c(c1C)C(c1ccc(Cl)cc1)=N[C@@H](CC(=O)OC(C)(C)C)c1nnc(C)n1-2
Summary of the method: as §1

[5] = compound: c1ccc([C@@H]2C[C@H]2NC2CCNCC2)cc1
Summary of the method: as §1

Measured: log2 fold change

ARHGAP18 (UniProt Q8N392)
inactive: [1] -0.1 | [2] -0.038 | [3] 0.173 | [4] 0.03 | [5] 0.027

AP3B1 (UniProt O00203)
inactive: [1] -0.038 | [2] 0.034 | [3] 0.062 | [4] 0.001 | [5] -0.042

ANKHD1 isoform 6 (UniProt Q8IWZ3)
inactive: [1] -0.018 | [2] -0.071 | [3] 0 | [4] 0.086 | [5] -0.001

API5 isoform 2 (UniProt Q9BZZ5)
inactive: [1] 0.011 | [2] 0.036 | [3] -0.012 | [4] -0.03 | [5] -0.052

AP1G1 isoform 2 (UniProt O43747)
inactive: [1] -0.038 | [2] 0.035 | [3] 0.058 | [4] -0.003 | [5] -0.048

ANK2 (UniProt Q01484)
inactive: [1] -0.019 | [2] 0.058 | [3] 0.071 | [4] 0.159 | [5] 0.02

AP1S1 (UniProt P61966)
inactive: [1] -0.007 | [2] 0.063 | [3] 0.124 | [4] -0.025 | [5] -0.048

AP2B1 isoform 2 (UniProt P63010)
inactive: [1] 0.023 | [2] -0.017 | [3] -0.016 | [4] 0.03 | [5] -0.002

APIP (UniProt Q96GX9)
inactive: [1] -0.007 | [2] 0.011 | [3] 0.014 | [4] -0.008 | [5] 0.021

ANAPC4 isoform 3 (UniProt Q9UJX5)
inactive: [1] 0.018 | [2] 0.025 | [3] 0.007 | [4] -0.032 | [5] 0.023

ANXA1 (UniProt P04083)
inactive: [1] -0.091 | [2] 0.039 | [3] 0.052 | [4] -0.002 | [5] -0.021

APH1A (UniProt Q96BI3)
inactive: [1] -0.015 | [2] 0.009 | [3] -0.21 | [4] -0.08 | [5] -0.153

ANO10 (UniProt Q9NW15)
inactive: [1] 0.025 | [2] 0.06 | [3] 0.053 | [4] -0.064 | [5] -0.022

ARF3 (UniProt P61204)
inactive: [1] -0.002 | [2] 0.025 | [3] 0.019 | [4] -0.033 | [5] 0.008

ANKRD13A (UniProt Q8IZ07)
inactive: [1] -0.039 | [2] -0.004 | [3] 0.071 | [4] -0.014 | [5] -0.028

ARHGEF18 (UniProt Q6ZSZ5)
inactive: [1] -0.167 | [2] -0.039 | [3] -0.13 | [4] 0.019 | [5] -0.031

AP3D1 isoform 5 (UniProt O14617)
inactive: [1] -0.05 | [2] -0.001 | [3] -0.017 | [4] 0.031 | [5] -0.037

Looked up one by one from the list above (3):
ARHGEF18 (UniProt Q6ZSZ5)
inactive: [1] -0.167 | [2] -0.039 | [3] -0.13 | [4] 0.019 | [5] -0.031

AP3D1 isoform 5 (UniProt O14617)
inactive: [1] -0.05 | [2] -0.001 | [3] -0.017 | [4] 0.031 | [5] -0.037

APH1A (UniProt Q96BI3)
inactive: [1] -0.015 | [2] 0.009 | [3] -0.21 | [4] -0.08 | [5] -0.153

(cont.)

ANKZF1 (UniProt Q9H8Y5)
inactive: [1] -0.113 | [2] -0.037 | [3] -0.01 | [4] 0.15 | [5] -0.008

ANXA6 (UniProt P08133)
inactive: [1] -0.014 | [2] 0.043 | [3] 0.114 | [4] 0.005 | [5] 0.001

ARHGAP4 isoform 2 (UniProt P98171)
inactive: [1] 0.211 | [2] -0.101 | [3] -0.069 | [4] -0.122 | [5] 0.008

ARF1 (UniProt P84077)
inactive: [1] 0.131 | [2] 0.024 | [3] 0.03 | [4] 0.123 | [5] 0.052

ARHGAP1 (UniProt Q07960)
inactive: [1] -0.02 | [2] 0.023 | [3] 0.047 | [4] -0.005 | [5] 0.002

APOB (UniProt P04114)
inactive: [1] 0.041 | [2] 0.028 | [3] 0.055 | [4] 0.034 | [5] -0.013

API5 (UniProt Q9BZZ5)
inactive: [1] 0.014 | [2] 0.059 | [3] -0.001 | [4] -0.02 | [5] -0.003

AP5Z1 (UniProt O43299)
inactive: [1] 0.111 | [2] 0.075 | [3] 0.113 | [4] 0.1 | [5] -0.073

ANP32B (UniProt Q92688)
inactive: [1] -0.039 | [2] 0.04 | [3] 0.086 | [4] -0.019 | [5] -0.014

ARFGEF2 (UniProt Q9Y6D5)
inactive: [1] -0.032 | [2] 0.052 | [3] 0.029 | [4] 0.063 | [5] -0.017

ANKRD17 (UniProt O75179)
inactive: [1] 0 | [2] 0.019 | [3] 0.087 | [4] 0.031 | [5] -0.019

AP3S1 (UniProt Q92572)
inactive: [1] 0.008 | [2] 0.026 | [3] 0.037 | [4] 0.037 | [5] -0.008

APOBEC3D (UniProt Q96AK3)
inactive: [1] 0.096 | [2] -0.09 | [3] -0.221 | [4] 0.022 | [5] 0.005

ANXA3 (UniProt P12429)
inactive: [1] -0.009 | [2] 0.067 | [3] 0.025 | [4] -0.013 | [5] -0.015

ARF4 (UniProt P18085)
inactive: [1] 0 | [2] 0.045 | [3] 0.053 | [4] -0.082 | [5] -0.015

ANK3 (UniProt Q12955)
inactive: [1] 0.064 | [2] 0.051 | [3] -0.021 | [4] 0.032 | [5] 0.025

APOO (UniProt Q9BUR5)
inactive: [1] 0.023 | [2] -0.034 | [3] 0.068 | [4] -0.028 | [5] 0.076

APRT (UniProt P07741)
inactive: [1] 0.023 | [2] 0.052 | [3] 0.071 | [4] -0.042 | [5] 0.005

ARFGEF1 (UniProt Q9Y6D6)
inactive: [1] -0.012 | [2] 0.034 | [3] 0.014 | [4] -0.063 | [5] -0.061

ANAPC7 (UniProt Q9UJX3)
inactive: [1] 0.027 | [2] -0.006 | [3] -0.007 | [4] 0.02 | [5] -0.029

ANXA5 (UniProt P08758)
inactive: [1] -0.036 | [2] 0.04 | [3] 0.024 | [4] 0.021 | [5] -0.022

APOL1 isoform 2 (UniProt O14791)
inactive: [1] -0.05 | [2] -0.235 | [4] -0.222 | [5] -0.11

ARHGEF1 isoform 3 (UniProt Q92888)
inactive: [1] -0.046 | [2] -0.048 | [3] 0.069 | [4] 0.081 | [5] 0.048

AP5M1 (UniProt Q9H0R1)
inactive: [1] 0.038 | [2] -0.077 | [3] -0.063 | [5] 0.124

ANAPC2 (UniProt Q9UJX6)
inactive: [1] -0.017 | [2] 0.016 | [3] -0.005 | [4] 0.017 | [5] -0.049

ARHGAP12 (UniProt Q8IWW6)
inactive: [1] 0.171 | [2] 0.052 | [3] 0.086 | [4] -0.071 | [5] -0.139

APMAP (UniProt Q9HDC9)
inactive: [1] -0.002 | [2] 0.002 | [3] 0.028 | [4] -0.022 | [5] 0.011

ARAF (UniProt P10398)
inactive: [1] -0.05 | [2] -0.003 | [3] 0.178 | [4] 0.022 | [5] 0.027

APOOL (UniProt Q6UXV4)
inactive: [1] 0.042 | [2] -0.003 | [3] 0.012 | [4] 0.012 | [5] 0.024

ANKRD28 (UniProt O15084)
inactive: [1] -0.003 | [2] 0.053 | [3] 0.023 | [4] 0.004 | [5] -0.008

AP1M1 (UniProt Q9BXS5)
inactive: [1] -0.013 | [2] 0.017 | [3] 0.027 | [4] 0.005 | [5] 0.011

APOC1 (UniProt P02654)
inactive: [1] -0.007 | [2] 0.185 | [3] -0.038 | [4] -0.061 | [5] 0.013

ANK1 isoform 14 (UniProt P16157)
inactive: [1] 0.024 | [2] -0.099 | [3] -0.031 | [4] 0.223 | [5] -0.102

ARFIP2 (UniProt P53365)
inactive: [1] -0.204 | [2] 0.014 | [3] -0.035 | [4] -0.086 | [5] 0.015

ARID1A (UniProt O14497)
inactive: [1] -0.071 | [2] 0.079 | [3] 0.115 | [4] -0.152 | [5] -0.019

ANXA2 isoform 2 (UniProt P07355)
inactive: [1] -0.047 | [2] 0.027 | [3] 0.005 | [4] -0.04 | [5] -0.044
